The values that follow come from article PMC6328465.

Chains of the proteins cited; added tags and fusions are not shown.
UniProt Q13574: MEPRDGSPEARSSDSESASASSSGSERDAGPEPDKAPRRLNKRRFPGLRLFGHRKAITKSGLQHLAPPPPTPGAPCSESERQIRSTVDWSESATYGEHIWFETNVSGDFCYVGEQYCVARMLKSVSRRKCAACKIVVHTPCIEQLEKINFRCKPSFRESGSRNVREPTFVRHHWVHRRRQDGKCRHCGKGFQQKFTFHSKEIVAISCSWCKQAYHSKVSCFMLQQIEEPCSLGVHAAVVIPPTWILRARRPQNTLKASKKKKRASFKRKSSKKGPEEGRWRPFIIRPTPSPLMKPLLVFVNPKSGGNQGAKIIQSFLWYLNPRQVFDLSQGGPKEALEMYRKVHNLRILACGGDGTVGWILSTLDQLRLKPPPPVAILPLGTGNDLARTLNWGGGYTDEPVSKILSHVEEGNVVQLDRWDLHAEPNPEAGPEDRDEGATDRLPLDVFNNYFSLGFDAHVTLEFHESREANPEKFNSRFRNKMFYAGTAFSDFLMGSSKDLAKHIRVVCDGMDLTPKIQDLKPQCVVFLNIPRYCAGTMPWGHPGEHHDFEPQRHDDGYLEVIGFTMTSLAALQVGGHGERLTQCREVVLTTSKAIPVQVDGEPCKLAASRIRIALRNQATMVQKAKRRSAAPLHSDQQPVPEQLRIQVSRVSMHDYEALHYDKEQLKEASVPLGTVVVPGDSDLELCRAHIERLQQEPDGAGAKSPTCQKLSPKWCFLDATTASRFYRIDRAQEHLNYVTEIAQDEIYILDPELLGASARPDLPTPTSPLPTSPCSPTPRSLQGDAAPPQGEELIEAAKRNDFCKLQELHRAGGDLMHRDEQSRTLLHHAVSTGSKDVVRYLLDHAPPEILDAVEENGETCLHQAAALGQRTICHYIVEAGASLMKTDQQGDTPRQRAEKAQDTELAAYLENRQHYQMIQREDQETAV
UniProt P27361: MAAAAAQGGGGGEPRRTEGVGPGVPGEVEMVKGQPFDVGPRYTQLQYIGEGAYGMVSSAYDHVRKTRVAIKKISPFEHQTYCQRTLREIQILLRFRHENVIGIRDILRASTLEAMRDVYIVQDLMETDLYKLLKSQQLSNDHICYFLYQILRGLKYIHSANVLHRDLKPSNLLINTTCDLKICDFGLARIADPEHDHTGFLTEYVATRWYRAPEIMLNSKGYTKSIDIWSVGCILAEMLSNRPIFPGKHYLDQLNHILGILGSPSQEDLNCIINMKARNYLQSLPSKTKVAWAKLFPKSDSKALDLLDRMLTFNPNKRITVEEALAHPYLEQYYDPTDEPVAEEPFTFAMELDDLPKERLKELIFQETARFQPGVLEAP
UniProt P28482: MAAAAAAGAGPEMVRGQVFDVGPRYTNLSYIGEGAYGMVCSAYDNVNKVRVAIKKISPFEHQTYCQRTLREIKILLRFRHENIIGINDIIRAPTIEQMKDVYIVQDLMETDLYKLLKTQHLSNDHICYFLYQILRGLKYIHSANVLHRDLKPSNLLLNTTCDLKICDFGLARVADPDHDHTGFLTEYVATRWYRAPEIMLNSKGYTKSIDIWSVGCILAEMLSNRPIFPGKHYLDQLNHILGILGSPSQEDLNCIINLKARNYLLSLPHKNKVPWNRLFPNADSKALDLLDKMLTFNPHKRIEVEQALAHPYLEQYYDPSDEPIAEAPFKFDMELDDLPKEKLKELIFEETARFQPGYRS

This assay concerns the target 3 × FLAG-DGKZ (diacylglycerol kinase zeta) (UniProt Q13574). Put plainly: co-IP; 3xFLAG-DGKZ immunoprecipitated from HOS cells on anti-FLAG magnetic beads, eluted by 3xFLAG peptide, SDS-PAGE and immunoblotting.

These are yes or no findings as the source states them, for the method shown. Binding seen in cells or lysates may run through a third protein. Some entries that bind do so weakly or less than the wild type.

In the case of “ERK1 (from UniProt P27361 1-379) (enzyme)”, the binding entry is “binds”. Consider “ERK2 (from UniProt P28482 1-360) (enzyme)”, for which the binding result is “binds”.
